Data as given in the supplement of paper PMC10973195.
± gives the standard deviation of the averaged measurements. This is one part of the list. These are raw signals, not scaled to a control.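 The test system is a mixed culture of neurons, microglia and astrocytes in which bacterial LPS triggers microglia-driven neuron loss, modelling inflammatory neurodegeneration. Each compound was compared with vehicle (DMSO) wells on the same plates, and the SYK inhibitor BAY61-3606 served as the reference neuroprotective control.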

Experiments:
Conditions in all cases: 1 µM, treatment time 3 days
[1] = system: rat primary cerebellar neuron-glia coculture; assay: microglia count (IB4+) per image field (cells per field); higher = more microglia
[2] = system: rat primary cerebellar neuron-glia coculture; assay: necrotic cell count (DRAQ7+) per image field (cells per field); higher = more necrosis
[3] = system: rat primary cerebellar neuron-glia coculture; assay: median microglial FormFactor (circularity) per image (dimensionless (0-1)); higher = rounder, more ameboid microglia
[4] = system: rat primary cerebellar neuron-glia coculture; assay: live neuron count (NeuO+) per image field (cells per field); higher = more surviving neurons

SMILES	microglia count ([1]; LPS 0 ng/mL)	microglia count ([1]; LPS 100 ng/mL)	necrotic cell count ([2]; LPS 0 ng/mL)	necrotic cell count ([2]; LPS 100 ng/mL)	median microglial FormFactor ([3]; LPS 0 ng/mL)	median microglial FormFactor ([3]; LPS 100 ng/mL)	live neuron count ([4]; LPS 0 ng/mL)	live neuron count ([4]; LPS 100 ng/mL)
Cc1noc(-c2ccc(CSCCC(=O)O)cc2)c1NC(=O)OC(C)c1ccccc1Cl (stereo unspecified)	162 ± 40	412 ± 80	133 ± 54	1160 ± 310	0.535 ± 0.093	0.662 ± 0.094	–	–
CCc1nc(N)nc(N)c1-c1ccc(Cl)cc1	130 ± 31	556 ± 60	–	–	0.754 ± 0.077	0.518 ± 0.056	–	–
COc1ccc(NC(=O)c2ccc(-c3ccc(-c4nnc(C)o4)cc3C)cc2)cc1N1CCN(C)CC1	308 ± 130	482 ± 150	56.5 ± 24	820 ± 530	0.463 ± 0.075	0.636 ± 0.12	2450 ± 380	776 ± 700
O=C(C1CC1)N1CC[C@@H](Cc2n[nH]c(=O)n2-c2ccc(-c3ccc4occc4c3)cc2)C1	198 ± 130	436 ± 86	70.2 ± 30	991 ± 280	0.541 ± 0.1	0.673 ± 0.048	–	–
CC[C@@H](C)Nc1cc(C(=O)NC2CC3CCC(C2)N3c2ccc(C(=O)C3CC3)cn2)c(C)cc1C(N)=O (stereo partly specified)	44.1 ± 56	81.8 ± 150	873 ± 490	1020 ± 480	0.468 ± 0.079	0.494 ± 0.07	2740 ± 680	2360 ± 800
O=C(c1cc(Cc2n[nH]c(=O)c3ccccc23)ccc1F)N1CCN(C(=O)C2CC2)CC1	154 ± 33	423 ± 88	–	–	0.529 ± 0.088	0.715 ± 0.051	–	–
Cc1ncc(Cl)cc1NCc1ccc(C(=O)N[C@@H](CC2CCCC2)C(=O)NC2CC2)s1	144 ± 28	398 ± 57	–	–	0.534 ± 0.037	0.699 ± 0.086	–	–
Cc1nn(C)c2nc(NNC(=O)Nc3cc(Cl)nc(Cl)c3)cc(C(C)C)c12	158 ± 36	450 ± 100	80.9 ± 31	975 ± 250	0.616 ± 0.12	0.645 ± 0.072	2690 ± 410	452 ± 630
CN1CCN(c2cc(-c3ccccc3)nc(N)n2)CC1	182 ± 60	451 ± 100	86.3 ± 35	952 ± 230	0.557 ± 0.073	0.65 ± 0.062	2600 ± 430	352 ± 310
Cc1nc2c([nH]1)-c1ccccc1N(C(=O)c1ccc(NC(=O)c3ccccc3-c3ccccc3)cc1)CC2	167 ± 41	450 ± 99	79 ± 38	949 ± 340	0.573 ± 0.072	0.632 ± 0.078	2620 ± 440	335 ± 280
CC(=O)O[C@]1(C(C)=O)CC[C@H]2[C@@H]3C[C@H](C)C4=CC(=O)CC[C@]4(C)[C@H]3CC[C@@]21C	163 ± 63	575 ± 90	111 ± 34	148 ± 60	0.567 ± 0.094	0.441 ± 0.081	–	–
Nc1ccccc1NC(=O)c1ccc(CNC(=O)OCc2cccnc2)cc1	134 ± 18	454 ± 170	–	–	0.46 ± 0.049	0.616 ± 0.047	–	–
O=C(Nc1cc(C2CC2)[nH]n1)c1ccc(Br)cc1	267 ± 370	408 ± 81	74.2 ± 29	959 ± 320	0.549 ± 0.082	0.716 ± 0.072	–	–
Cn1ncnc1COc1nn2c(-c3cc(F)ccc3F)nnc2cc1C(C)(C)C	146 ± 28	611 ± 140	141 ± 52	132 ± 130	0.65 ± 0.1	0.488 ± 0.09	2630 ± 470	2460 ± 510
CC(C)(C#N)c1cc(Cn2cncn2)cc(C(C)(C)C#N)c1	119 ± 11	590 ± 79	248 ± 60	175 ± 58	0.758 ± 0.076	0.496 ± 0.051	2530 ± 780	2680 ± 550
O=C(O)c1cc(-c2ccc(Cl)cc2)ncn1	181 ± 39	459 ± 100	–	–	0.554 ± 0.093	0.646 ± 0.063	–	–
CC[C@H]1[C@@H](O)[C@@H]2[C@H](CC[C@]3(C)[C@@H]([C@H](C)CCC(=O)O)CC[C@@H]23)[C@@]2(C)CC[C@@H](O)C[C@@H]12	187 ± 96	418 ± 69	–	–	0.564 ± 0.11	0.666 ± 0.063	–	–
CCN(CC)c1ccc(NC(=O)c2c(-c3c(Cl)cccc3Cl)noc2C)cc1	148 ± 35	443 ± 100	90.6 ± 34	996 ± 330	0.574 ± 0.08	0.658 ± 0.057	–	–
O=c1[nH]c2cc(Cl)ccc2c(O)c1-c1cccc(Oc2ccccc2)c1	157 ± 36	442 ± 94	92.3 ± 31	949 ± 300	0.523 ± 0.08	0.667 ± 0.048	–	–
Oc1noc2cc(Cl)ccc12	180 ± 75	434 ± 86	79.3 ± 34	895 ± 230	0.576 ± 0.097	0.715 ± 0.044	2700 ± 400	186 ± 130

SMILES	microglia count ([1]; LPS 0 ng/mL)	microglia count ([1]; LPS 100 ng/mL)	necrotic cell count ([2]; LPS 0 ng/mL)	necrotic cell count ([2]; LPS 100 ng/mL)	median microglial FormFactor ([3]; LPS 0 ng/mL)	median microglial FormFactor ([3]; LPS 100 ng/mL)	live neuron count ([4]; LPS 0 ng/mL)	live neuron count ([4]; LPS 100 ng/mL)
CCCCC[C@H](CC(=O)NO)C(=O)N[C@H](C(=O)N1CCC[C@H]1CO)C(C)C	229 ± 240	425 ± 69	89.6 ± 30	882 ± 260	0.54 ± 0.085	0.679 ± 0.053	2450 ± 520	472 ± 520
O=c1ccn([C@@H]2O[C@H](CO)[C@@H](O)[C@H]2O)c(=O)[nH]1	171 ± 78	440 ± 87	84.5 ± 31	1120 ± 370	0.52 ± 0.11	0.636 ± 0.045	–	–
O=C(c1ccccc1)c1ccc2n1CCC2C(=O)O (stereo unspecified)	162 ± 46	543 ± 67	89 ± 34	781 ± 280	0.553 ± 0.081	0.455 ± 0.064	2530 ± 630	745 ± 760
CC(=O)Nc1cccc(-n2c(=O)n(C3CC3)c(=O)c3c(Nc4ccc(I)cc4F)n(C)c(=O)c(C)c32)c1	64.2 ± 24	307 ± 39	140 ± 64	438 ± 320	0.591 ± 0.1	0.665 ± 0.069	2780 ± 270	1250 ± 720
CN1C(N)=N[C@](C)(c2cc(NC(=O)c3ccc(F)cn3)ccc2F)CS1(=O)=O	190 ± 32	440 ± 140	94.7 ± 30	949 ± 420	0.537 ± 0.083	0.68 ± 0.071	–	–
O=C(CSc1nc2ccc(N3C(=O)c4ccccc4C3=O)cc2s1)Nc1cccc(Cl)c1	152 ± 38	411 ± 78	96.7 ± 42	1050 ± 260	0.532 ± 0.083	0.674 ± 0.061	2660 ± 400	238 ± 180
CCN(CC)CCOC(=O)C(c1ccccc1)c1ccccc1	179 ± 82	412 ± 78	96.3 ± 54	954 ± 410	0.512 ± 0.083	0.706 ± 0.078	2440 ± 550	228 ± 340
CC(C)NCC(O)c1ccc(O)c(O)c1 (stereo unspecified)	179 ± 76	490 ± 140	82.5 ± 24	851 ± 370	0.555 ± 0.062	0.623 ± 0.078	2620 ± 550	578 ± 520
Cc1[nH]n(-c2ccccc2)c(=O)c1C1(C(F)(F)F)C(=O)N(c2cccc(Cl)c2)C2=C1C(=O)CC(C)(C)C2 (stereo unspecified)	185 ± 93	436 ± 96	97.7 ± 39	926 ± 210	0.528 ± 0.11	0.68 ± 0.069	2540 ± 490	353 ± 520
NC1(Cc2ccc(Cl)cc2)CCN(c2ncnc3[nH]ccc23)CC1	153 ± 61	416 ± 80	–	–	0.621 ± 0.09	0.616 ± 0.1	–	–
Cc1[nH]c(/C=C2\C(=O)Nc3ccc(S(=O)(=O)N(C)c4cccc(Cl)c4)cc32)c(C)c1C(=O)N1CCN(C)CC1	180 ± 89	422 ± 77	86 ± 29	992 ± 280	0.534 ± 0.063	0.702 ± 0.054	2780 ± 410	385 ± 410
O=C(c1ccc(C(=O)N2CCC(N3CCCC3)CC2)c(Nc2ccccc2)c1)N1CCC(N2CCCC2)CC1	186 ± 39	454 ± 90	–	–	0.563 ± 0.072	0.662 ± 0.092	–	–
C#Cc1cccc(Nc2ncnc3cc(OCCOC)c(OCCOC)cc23)c1	165 ± 55	476 ± 97	91.6 ± 31	801 ± 440	0.512 ± 0.091	0.622 ± 0.1	2670 ± 440	641 ± 760
CNC[C@H](O)c1ccc(O)c(O)c1	102 ± 37	469 ± 84	–	–	0.594 ± 0.068	0.597 ± 0.046	–	–
C[C@]12C=CC(=O)C=C1CC[C@H]1[C@@H]3C[C@@H](O)[C@](O)(C(=O)CO)[C@@]3(C)C[C@H](O)[C@@]12F	30.2 ± 23	278 ± 65	–	–	0.538 ± 0.085	0.662 ± 0.039	–	–
CNCc1cc(=O)oc2cc(OCc3cccc(Cl)c3)ccc12	170 ± 49	463 ± 120	80.5 ± 33	893 ± 350	0.541 ± 0.068	0.643 ± 0.068	–	–
COc1cc2c(cc1OCCCN1CCCC1)N=C(N)C21CCC1	280 ± 350	441 ± 110	–	–	0.521 ± 0.077	0.655 ± 0.08	–	–
CC(C)(C)c1cc(C(=O)Cn2c(=N)n(CCN3CCOCC3)c3ccccc32)cc(C(C)(C)C)c1O	203 ± 85	420 ± 51	–	–	0.542 ± 0.074	0.646 ± 0.086	–	–
COc1ccc(COC(=O)C2=C(C)NC(=O)NC2c2ccccc2)cc1 (stereo unspecified)	165 ± 39	389 ± 62	89.9 ± 18	758 ± 350	0.571 ± 0.083	0.676 ± 0.11	2210 ± 400	629 ± 590

Filtered by structure: the compounds so far containing a tert-butyl group (2)
SMILES	microglia count ([1]; LPS 0 ng/mL)	microglia count ([1]; LPS 100 ng/mL)	necrotic cell count ([2]; LPS 0 ng/mL)	necrotic cell count ([2]; LPS 100 ng/mL)	median microglial FormFactor ([3]; LPS 0 ng/mL)	median microglial FormFactor ([3]; LPS 100 ng/mL)	live neuron count ([4]; LPS 0 ng/mL)	live neuron count ([4]; LPS 100 ng/mL)
Cn1ncnc1COc1nn2c(-c3cc(F)ccc3F)nnc2cc1C(C)(C)C	146 ± 28	611 ± 140	141 ± 52	132 ± 130	0.65 ± 0.1	0.488 ± 0.09	2630 ± 470	2460 ± 510
CC(C)(C)c1cc(C(=O)Cn2c(=N)n(CCN3CCOCC3)c3ccccc32)cc(C(C)(C)C)c1O	203 ± 85	420 ± 51	–	–	0.542 ± 0.074	0.646 ± 0.086	–	–
